For assay [1], the target named is GST-tagged wild type MSP-domain of VAPB (UniProt O95292). Kind of assay: pull-down.
The target of a further assay is GFP-VAPB (UniProt O95292). Kind of assay: co-IP.
Assay [2] deals with Vesicle-Associated-membrane Protein-associated protein B (VAPB), endogenous (human (endogenous in HeLa)) (UniProt O95292). Kind of assay: co-IP.
Assay [3] addresses GST-tagged MSP-domain of VAPB, K87D/M89D mutant (UniProt O95292). Kind of assay: pull-down.
In assay [4] the target is GST-tagged wild type MSP-domain of VAPB (UniProt O95292). Kind of assay: pull-down. The source holds these as a separate data set.
Assay [5] has as its target wild-type full-length HA-VAPB (UniProt O95292). Kind of assay: proximity ligation.
Assay [6] addresses T1, ORP1-peptide (amino acid residues 469-485) (UniProt Q9BXW6).
T1 sequence (peptide, biotin at the N-terminus): SILSEDEFYDALSDSES
Kind of assay: pull-down.

Amino acid sequences for entries named in this document (tags omitted). A change or cut given only in a name is not applied to a line headed by its entry. Chains listed by the source or under a name are the forms on record and can include a tag or linker.
UniProt O95292: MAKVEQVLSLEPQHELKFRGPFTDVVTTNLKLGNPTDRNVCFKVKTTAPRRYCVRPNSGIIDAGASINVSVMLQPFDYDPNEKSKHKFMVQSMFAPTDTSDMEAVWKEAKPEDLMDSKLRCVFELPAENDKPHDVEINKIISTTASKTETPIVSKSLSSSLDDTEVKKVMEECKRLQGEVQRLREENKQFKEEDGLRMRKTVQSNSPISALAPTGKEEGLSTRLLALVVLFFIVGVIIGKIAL
GST-tagged MSP-domain of VAPB, K87D/M89D mutant (O95292, form named): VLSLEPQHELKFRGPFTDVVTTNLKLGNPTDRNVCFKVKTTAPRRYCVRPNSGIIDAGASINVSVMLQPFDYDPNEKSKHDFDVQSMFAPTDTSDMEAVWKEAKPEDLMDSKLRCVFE
UniProt Q9BXW6: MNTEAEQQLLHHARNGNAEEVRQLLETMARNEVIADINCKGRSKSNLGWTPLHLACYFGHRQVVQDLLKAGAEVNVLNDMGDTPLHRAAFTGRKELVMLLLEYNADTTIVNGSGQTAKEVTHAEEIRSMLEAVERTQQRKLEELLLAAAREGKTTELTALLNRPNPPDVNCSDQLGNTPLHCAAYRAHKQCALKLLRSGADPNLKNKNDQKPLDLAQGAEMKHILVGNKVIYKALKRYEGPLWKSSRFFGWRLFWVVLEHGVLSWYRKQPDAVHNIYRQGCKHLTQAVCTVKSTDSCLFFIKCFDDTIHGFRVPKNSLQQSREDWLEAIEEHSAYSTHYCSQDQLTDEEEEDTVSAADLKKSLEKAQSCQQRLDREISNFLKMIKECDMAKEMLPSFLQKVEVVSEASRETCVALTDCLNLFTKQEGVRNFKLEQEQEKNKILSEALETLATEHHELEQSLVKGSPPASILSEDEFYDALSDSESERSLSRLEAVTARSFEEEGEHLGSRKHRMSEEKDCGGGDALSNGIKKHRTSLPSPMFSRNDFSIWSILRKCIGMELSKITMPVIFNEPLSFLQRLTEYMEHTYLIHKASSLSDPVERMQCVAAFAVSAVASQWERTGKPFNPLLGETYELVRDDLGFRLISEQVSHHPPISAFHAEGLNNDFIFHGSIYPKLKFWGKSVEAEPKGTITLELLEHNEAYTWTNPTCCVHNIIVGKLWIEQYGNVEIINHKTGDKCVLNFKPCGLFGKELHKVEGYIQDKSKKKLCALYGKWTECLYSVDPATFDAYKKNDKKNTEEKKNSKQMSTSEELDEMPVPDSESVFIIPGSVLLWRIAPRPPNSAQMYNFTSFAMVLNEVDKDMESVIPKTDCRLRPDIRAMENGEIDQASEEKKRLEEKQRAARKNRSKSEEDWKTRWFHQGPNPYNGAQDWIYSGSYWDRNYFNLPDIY
UniProt Q8WYP5: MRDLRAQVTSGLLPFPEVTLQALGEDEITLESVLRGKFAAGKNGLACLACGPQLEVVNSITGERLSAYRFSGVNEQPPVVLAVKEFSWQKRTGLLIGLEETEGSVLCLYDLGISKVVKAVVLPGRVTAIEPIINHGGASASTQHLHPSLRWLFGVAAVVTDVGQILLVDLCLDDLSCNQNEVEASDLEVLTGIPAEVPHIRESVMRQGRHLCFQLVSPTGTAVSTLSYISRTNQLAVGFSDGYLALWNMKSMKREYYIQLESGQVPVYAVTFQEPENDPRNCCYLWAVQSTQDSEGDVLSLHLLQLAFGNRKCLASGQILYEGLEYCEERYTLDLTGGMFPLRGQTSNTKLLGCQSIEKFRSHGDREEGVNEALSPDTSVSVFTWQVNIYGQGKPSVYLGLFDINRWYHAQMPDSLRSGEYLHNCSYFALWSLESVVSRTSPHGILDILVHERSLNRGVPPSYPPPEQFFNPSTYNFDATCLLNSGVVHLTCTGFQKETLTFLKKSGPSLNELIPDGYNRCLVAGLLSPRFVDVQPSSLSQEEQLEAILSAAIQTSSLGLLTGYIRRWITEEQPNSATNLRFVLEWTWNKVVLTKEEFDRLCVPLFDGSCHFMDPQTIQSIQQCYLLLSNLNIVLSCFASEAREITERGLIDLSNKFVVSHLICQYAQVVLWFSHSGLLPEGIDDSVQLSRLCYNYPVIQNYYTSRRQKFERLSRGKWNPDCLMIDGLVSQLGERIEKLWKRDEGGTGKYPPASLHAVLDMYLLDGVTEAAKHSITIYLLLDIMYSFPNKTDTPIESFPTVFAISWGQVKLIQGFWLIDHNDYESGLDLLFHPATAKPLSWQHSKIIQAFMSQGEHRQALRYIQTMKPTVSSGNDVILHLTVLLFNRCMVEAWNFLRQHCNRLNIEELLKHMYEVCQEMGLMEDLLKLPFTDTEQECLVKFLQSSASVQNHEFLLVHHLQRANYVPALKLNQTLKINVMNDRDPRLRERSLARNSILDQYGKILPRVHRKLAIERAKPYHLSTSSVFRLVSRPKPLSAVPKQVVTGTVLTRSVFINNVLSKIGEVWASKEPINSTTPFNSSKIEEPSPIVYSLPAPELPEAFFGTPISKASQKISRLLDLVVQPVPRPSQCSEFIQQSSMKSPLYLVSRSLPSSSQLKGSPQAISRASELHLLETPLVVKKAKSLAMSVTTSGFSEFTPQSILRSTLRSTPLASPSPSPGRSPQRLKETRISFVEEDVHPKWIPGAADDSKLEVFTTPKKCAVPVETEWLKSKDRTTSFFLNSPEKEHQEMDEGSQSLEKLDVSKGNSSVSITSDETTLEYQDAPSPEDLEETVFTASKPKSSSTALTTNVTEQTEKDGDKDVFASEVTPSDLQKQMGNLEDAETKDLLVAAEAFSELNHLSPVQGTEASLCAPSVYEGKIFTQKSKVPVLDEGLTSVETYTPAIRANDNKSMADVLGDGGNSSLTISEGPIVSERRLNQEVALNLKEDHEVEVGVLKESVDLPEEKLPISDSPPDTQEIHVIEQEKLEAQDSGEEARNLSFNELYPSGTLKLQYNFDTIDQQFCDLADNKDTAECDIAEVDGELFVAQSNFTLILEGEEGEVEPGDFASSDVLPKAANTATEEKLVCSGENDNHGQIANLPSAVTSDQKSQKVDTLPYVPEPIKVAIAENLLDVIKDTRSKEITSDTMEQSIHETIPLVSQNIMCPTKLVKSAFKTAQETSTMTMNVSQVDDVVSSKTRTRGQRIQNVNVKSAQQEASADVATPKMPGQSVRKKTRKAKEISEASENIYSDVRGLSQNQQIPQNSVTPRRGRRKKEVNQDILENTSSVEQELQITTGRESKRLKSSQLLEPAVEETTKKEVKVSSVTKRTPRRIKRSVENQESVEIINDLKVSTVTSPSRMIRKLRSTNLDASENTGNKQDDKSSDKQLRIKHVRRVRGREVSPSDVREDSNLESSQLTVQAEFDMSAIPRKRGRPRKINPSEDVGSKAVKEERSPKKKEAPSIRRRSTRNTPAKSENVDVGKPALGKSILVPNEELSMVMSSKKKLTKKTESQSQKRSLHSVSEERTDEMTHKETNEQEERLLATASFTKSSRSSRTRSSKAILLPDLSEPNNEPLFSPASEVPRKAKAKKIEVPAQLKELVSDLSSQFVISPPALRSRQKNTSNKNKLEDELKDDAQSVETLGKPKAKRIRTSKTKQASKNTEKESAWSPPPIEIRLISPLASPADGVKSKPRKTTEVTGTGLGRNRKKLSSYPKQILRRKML

The text below walks through data of paper doi:10.1101/2023.07.03.547506.

Where two headings read alike, the source gives them in different places. Results are given in words; binding and its absence hold for the method and conditions named. For some of these results: Binding seen in cells or lysates may run through a third protein. Some results given as binding are weak or reduced against the parent protein; the word gives no strength.

“ELYS (embryonic large molecule derived from yolk sac), endogenous full-length nucleoporin (from UniProt Q8WYP5 1-2266)”: the binding entry in assay [1] was “binds weakly”; in the assay with GFP-VAPB, “binds”; in assay [2] it was “binds”; in assay [3], “no binding”; in assay [4], “binds”; in assay [5], “binds”.
“GST-tagged wild type MSP-domain of VAPB (from UniProt O95292 7-124) (domain or fragment)”: in assay [6], the binding result is listed as “binds”.
